Laboratory results reported in PubChem BioAssay AID463116 (University of Pittsburgh Molecular Library Screening Center, 2010).
Among all 1,000 compounds or so, about 710 (71%) were called active. The set was probably picked from earlier hits. Inconclusive results, whose numbers are uncertain, are shown with a selection of clear calls.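 How the source made its calls: active means inhibition of receptor movement into the nucleus at or above a set limit in both runs, with normal cell brightness and cell count; inconclusive means limit reached in only one run, brightness and count normal; inactive means the rest.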

assay: dynein cargo transport inhibitors, GR-EGFP translocation, confirmation, imaging, high-content imaging, GR-EGFP cells (AID 463116); details: 3617.4 GR-EGFP nuclear translocation imaging, dexamethasone-induced; at 20 µM; active compounds read high;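 further: dexamethasone at 1 µM final in well for 30 min; nuclear minus cytoplasmic GR-EGFP mean intensity difference in channel 2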

Q: For `Cn1c(Cl)cnc1C1CC(=O)c2cc(Cl)ccc2O1` (configuration not stated), which inhibition is on record?
A: inconclusive: 48.1%

Q: For `COc1ccccc1-c1cc(C(F)(F)F)nc(S(=O)(=O)CCCC(=O)N2CCCCC2C)n1` (configuration not stated), which inhibition is on record?
A: inconclusive: 29%

Q: For `Cc1ccc(C(=O)/C=C/c2ccccc2)o1`, which inhibition is on record?
A: inconclusive: 50.8%

Q: For `COc1cc(/C=C2\SC(=O)NC2=O)ccc1Oc1ccc([N+](=O)[O-])cc1[N+](=O)[O-]`, which inhibition is on record?
A: inconclusive: 46.6%

Q: With `COc1ccccc1C(C[N+](=O)[O-])c1c(N)n(C)c(=O)n(C)c1=O` (configuration not stated) as the compound, how does the inhibition read?
A: inconclusive: 48.6%

Q: For `CC(NCC(O)COCCC12CC3CC(CC(C3)C1)C2)c1ccccc1` (configuration not stated), which inhibition is on record?
A: inactive: 31.4%

Q: For `O=C(NC(=S)Nc1ccc(-c2ccc(CO)o2)cc1)c1cccs1`, which inhibition is on record?
A: inactive: 10.1%

Q: Which inhibition does the source give for `COc1ccc(/C=c2\s/c(=C/C(=O)c3ccc(C)cc3)[nH]c2=O)cc1OC` here?
A: inactive: 13%

Q: For `COc1ccc(NC(=O)c2oc3cc(C)c(C)cc3c2C)c(OC)c1`, which inhibition is on record?
A: inactive: 11.6%

Q: With `Cc1cccc2cc3c(N)c(C(=O)N4CCCc5ccccc54)sc3nc12` as the compound, how does the inhibition read?
A: active: 97.1%

Q: For `COc1ccc(CN(C)C(=O)CCl)cc1`, which inhibition is on record?
A: active: 62.2%

Q: For `Nc1ccc(N2CCCCCC2)cc1`, which inhibition is on record?
A: inconclusive: 50.1%

Q: Which inhibition does the source give for `CCN(CC)c1ccc(N=Cc2ccc([N+](=O)[O-])o2)cc1` here?
A: inconclusive: 49.6%

Q: Which inhibition does the source give for `COC(=O)C(=C/C(C)=C/c1cccs1)C(=O)OC` here?
A: inconclusive: 47.7%

Q: Which inhibition does the source give for `ClC1=C(Cl)C(Cl)=C(Cl)C1=C/C=C/c1ccccc1` here?
A: inactive: 47.5%

Q: Which inhibition does the source give for `O=c1oc(-c2ccco2)nc2ccccc12` here?
A: inactive: 38.2%

Q: For `Cc1cccc(NC(=O)CCC(=O)OCC(=O)c2ccc(Oc3ccc([N+](=O)[O-])cc3)cc2)c1`, which inhibition is on record?
A: inconclusive: 50.3%

Q: With `CCCCc1ccc(/C=C2\C(=O)c3ccccc3C(O)=C2C(=O)OCC)cc1` as the compound, how does the inhibition read?
A: active: 79.5%

Q: Which inhibition does the source give for `O=C(NCCC1=CCCCC1)c1coc(=O)c(Br)c1` here?
A: inconclusive: 46.6%

Q: Which inhibition does the source give for `Cn1c(=O)c(Nc2ccc(Cl)cc2)c2c3c(cccc31)C(=O)c1ccccc1-2` here?
A: active: 99.6%

Q: Which inhibition does the source give for `Cc1ccc(NC(=O)CN(C)C(=O)Cn2ncc(Cl)c(Cl)c2=O)cc1` here?
A: active: 88.2%

Q: Which inhibition does the source give for `CS(=O)(=O)N1N=C(c2ccccc2)CC1c1ccc2c(c1)OCO2` (configuration not stated) here?
A: inactive: 182%

Q: For `CCOC(=O)C1(CCCc2ccccc2)CCN(C(=O)C2=C(C)OCCO2)CC1`, which inhibition is on record?
A: inconclusive: 49.5%

Q: Which inhibition does the source give for `Cc1ccnc(SCc2cc(=O)c(OC(=O)c3cc([N+](=O)[O-])ccc3Cl)co2)n1` here?
A: active: 70.5%

Q: With `Cc1cccc(Cn2ncc(Cl)c(Cl)c2=O)c1` as the compound, how does the inhibition read?
A: active: 88.9%

Q: With `CCOC(=O)C1=C(C)OC(N)=C(C#N)C1c1cncc(-c2ccc(F)cc2)c1` (configuration not stated) as the compound, how does the inhibition read?
A: inconclusive: 47%

Q: Which inhibition does the source give for `COc1ccccc1N1C(=O)CC(Sc2n[nH]c(-c3cccc(C)c3)n2)C1=O` (configuration not stated) here?
A: active: 77.6%

Q: For `CC(=O)OCCNc1cc(SCc2ccco2)c2nonc2c1[N+](=O)[O-]`, which inhibition is on record?
A: active: 86.3%

Q: For `ClCc1nnc(-c2cc3c(s2)CCCC3)o1`, which inhibition is on record?
A: inconclusive: 8.37%

Q: For `CCOC(=O)c1c(-c2ccc(C)cc2)csc1NC(=O)/C(C#N)=C/c1ccc(O)c(OC)c1`, which inhibition is on record?
A: inactive: 109%

Q: For `Cc1cccc(NC(=O)CN2C(=O)N/C(=C/c3ccc(C)s3)C2=O)c1`, which inhibition is on record?
A: inconclusive: 51.6%

Q: Which inhibition does the source give for `O=[N+]([O-])c1ccc(N/N=C/c2cn(Cc3ccc(F)cc3)c3ccccc23)nc1` here?
A: inconclusive: 49.8%

Q: For `N#C/C(=C\c1sc(N2CCOCC2)nc1-c1ccccc1)C(=O)Nc1cccc2ccccc12`, which inhibition is on record?
A: inconclusive: 48.3%

Q: For `CCCNC(=O)Cn1sc2nc(C)cc(C)c2c1=O`, which inhibition is on record?
A: inactive: 22.5%

Q: For `CCOC(=O)/C(=C\C=C1/Sc2cc(OCC)c(OCC)cc2N1CC)C(C)=O`, which inhibition is on record?
A: inactive: -12.2%

Q: For `Cc1cc(-c2n[nH]c(=S)n2/N=C/C(Br)=C/c2ccccc2)n[nH]1`, which inhibition is on record?
A: active: 80.8%

Q: For `Cc1ccc(C)c(C(=O)Cn2ncc(Cl)c(Cl)c2=O)c1`, which inhibition is on record?
A: inconclusive: 51.4%

Q: For `CS(=O)(=O)c1sc(C#N)c2c1C(=O)CC(c1ccccc1)C2` (configuration not stated), which inhibition is on record?
A: inconclusive: 23.6%

Q: Which inhibition does the source give for `CCCCCCCOC(=O)C[N+](C)(C)CCOC1CC2CCC1(C)C2(C)C` (configuration not stated) here?
A: inactive: 90.4%

Q: With `COc1ccccc1NC1=C(NC(C)=O)C(=O)c2ccccc2C1=O` as the compound, how does the inhibition read?
A: inconclusive: 48.6%

Q: Which inhibition does the source give for `CCOC(=O)c1c(C)oc2c1c(C(c1cccnc1)N1CCOCC1)c(O)c1ccccc12` (configuration not stated) here?
A: inconclusive: 50.9%

Q: Which inhibition does the source give for `COc1ccc(/C=C(/C(=O)c2cccs2)N2C=CC=CC2=C(C#N)C#N)cc1` here?
A: inconclusive: 44.2%

Q: For `Cc1ccc2nc(Nc3ccc4[nH]c(=O)[nH]c4c3)c(-n3nc(C)cc3C)nc2c1`, which inhibition is on record?
A: inactive: 13.9%

Q: For `CCCc1ccc(/C=C2\C(=O)c3ccccc3C(O)=C2C(=O)OCC)cc1`, which inhibition is on record?
A: inconclusive: 64.9%

Q: For `Cc1cc(-c2cccs2)c2c(N)c(C(=O)c3ccc4c(c3)OCO4)sc2n1`, which inhibition is on record?
A: inconclusive: 60.6%

Q: Which inhibition does the source give for `CCOc1ccc(C(=O)C(CCC(CN(C)C)C(=O)c2ccc(OCC)cc2)CN(C)C)cc1` (configuration not stated) here?
A: inactive: 21.6%

Q: For `CCC1Oc2ccc(C)cc2N(CC(=O)N(Cc2cccnc2)Cc2ccc(C)o2)C1=O` (configuration not stated), which inhibition is on record?
A: inconclusive: 46.9%

Q: For `Cn1c(-c2ccccc2)c(C(=O)CCl)c2ccccc21`, which inhibition is on record?
A: active: 72.2%

Q: Which inhibition does the source give for `Cc1ccc(S(=O)(=O)/N=c2\ccc(Cl)cn2C(F)F)cc1` here?
A: inactive: 16%

Q: For `CCC(C)(C)c1ccc(OCCCC[n+]2cccc(C)c2)c(C(C)(C)CC)c1`, which inhibition is on record?
A: inactive: 37.4%

Q: For `O=C(Cn1ncc(Cl)c(Cl)c1=O)N1CCOCC1`, which inhibition is on record?
A: active: 59.8%

Q: With `CC1=C(CO)C(=O)OC([C@@H](C)C2CC[C@H]3C4C[C@H]5O[C@]56[C@@H](O)C=CC(=O)[C@]6(C)C4CC[C@]23C)C1` (some centres not stated) as the compound, how does the inhibition read?
A: inconclusive: 48.9%

Q: Which inhibition does the source give for `Cc1cccc(N2CCN(C(=O)Cn3sc4nc(C)cc(C)c4c3=O)CC2C)c1` (configuration not stated) here?
A: inconclusive: 52%

Q: With `Cc1ccc(S(=O)(=O)/N=C(\Sc2ccccc2)c2ccccc2)cc1` as the compound, how does the inhibition read?
A: active: 73.1%

Q: Which inhibition does the source give for `CCCN(CCC)S(=O)(=O)c1ccc(Cl)c([N+](=O)[O-])c1` here?
A: inconclusive: 49%

Q: With `O=C(/C=C/c1cc(Br)ccc1O)c1ccco1` as the compound, how does the inhibition read?
A: inactive: 41%

Q: For `Cc1nnc(NC(=O)c2sc3nc(-c4cccs4)cc(C(F)(F)F)c3c2N)s1`, which inhibition is on record?
A: inactive: 153%
